Data on 4 sequences can be found in patent US11219635.

Sequences of proteins named here, by UniProt entry; tags and fusion partners are left off. Residues count along the entry.
UniProt P38646, 47-679: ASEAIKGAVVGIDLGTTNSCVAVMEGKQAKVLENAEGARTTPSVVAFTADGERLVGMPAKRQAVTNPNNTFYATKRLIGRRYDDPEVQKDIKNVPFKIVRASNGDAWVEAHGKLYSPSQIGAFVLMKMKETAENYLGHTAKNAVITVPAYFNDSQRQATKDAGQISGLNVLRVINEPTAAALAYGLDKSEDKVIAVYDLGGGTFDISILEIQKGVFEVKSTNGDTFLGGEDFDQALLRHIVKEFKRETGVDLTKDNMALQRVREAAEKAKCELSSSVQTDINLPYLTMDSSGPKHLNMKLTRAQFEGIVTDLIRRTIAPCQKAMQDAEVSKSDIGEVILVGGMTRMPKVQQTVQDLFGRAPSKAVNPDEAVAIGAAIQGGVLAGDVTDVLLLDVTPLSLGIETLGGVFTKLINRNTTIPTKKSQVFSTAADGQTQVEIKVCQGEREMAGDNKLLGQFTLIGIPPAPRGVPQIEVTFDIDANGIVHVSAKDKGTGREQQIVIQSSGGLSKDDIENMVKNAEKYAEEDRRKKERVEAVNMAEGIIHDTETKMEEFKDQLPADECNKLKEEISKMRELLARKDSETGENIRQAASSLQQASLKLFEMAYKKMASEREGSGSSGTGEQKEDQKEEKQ
UniProt P07766, 23-126: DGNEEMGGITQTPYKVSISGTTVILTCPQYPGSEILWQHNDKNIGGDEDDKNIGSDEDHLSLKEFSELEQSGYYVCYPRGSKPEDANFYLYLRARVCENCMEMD
UniProt P08670, 2-466: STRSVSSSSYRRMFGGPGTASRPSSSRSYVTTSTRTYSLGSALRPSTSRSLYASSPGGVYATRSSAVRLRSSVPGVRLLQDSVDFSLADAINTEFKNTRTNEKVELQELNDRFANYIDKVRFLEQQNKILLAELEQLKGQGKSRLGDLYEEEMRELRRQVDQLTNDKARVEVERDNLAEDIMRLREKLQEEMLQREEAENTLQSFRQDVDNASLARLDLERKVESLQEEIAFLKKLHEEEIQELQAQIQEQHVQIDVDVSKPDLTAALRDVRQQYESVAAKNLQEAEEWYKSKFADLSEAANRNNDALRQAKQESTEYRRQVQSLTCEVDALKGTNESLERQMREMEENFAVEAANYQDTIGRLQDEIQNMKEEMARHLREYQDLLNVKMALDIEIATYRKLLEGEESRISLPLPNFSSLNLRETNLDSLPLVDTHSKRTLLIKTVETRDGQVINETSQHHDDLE

Data set [1] concerns the target mHSP70 (mortalin), PANC-1 cell surface (Homo sapiens) (UniProt P38646). The data set is described as follows: activity in cells. The following applies: 2'-F C and U; 2'-OMe A and G in sticky ends; C3 spacers (7 in tP19 strand, 5 in CCR5 strand); up to 80% PANC-1 lysis with CD8 T cells, E:T 20:1, 500 nM, 8 h; protein on the cell surface.
Data set [2] addresses CD3 epsilon (recombinant) (Homo sapiens) (UniProt P07766). The data set is described as follows: SELEX. The conditions noted are these: 2'-F C and U; 5 rounds against His-tagged hCD3e, 5 mM MgCl2; purified recombinant protein; protein details: His tag, Creative Biomart; label: Cy3.
Data set [3] concerns the target Vimentin (PANC-1 membrane extract) (Homo sapiens) (UniProt P08670). Description: pull-down. The following applies: 2'-F C and U; biotinylated aptamer on streptavidin beads, band identified as vimentin by LC-MS/MS; protein in an extract; label: Cy3 or 3'-biotin.
Data set [4] concerns the target Vimentin (plasma membrane, PANC-1 cells) (Homo sapiens) (UniProt P08670). The data set is described as follows: competition with a labelled probe. The following applies: 2'-F C and U; 1 uM anti-vimentin antibody significantly reduced P15 (200 nM) binding to cells, P<0.05; protein on the cell surface; label: Cy3 or 3'-biotin.
Data set [5] concerns the target CD3 epsilon (EGFP fusion, stable HEK293) (Homo sapiens) (UniProt P07766). Description: binding assay. The conditions noted are these: 2'-F C and U; live-cell confocal; 30 mM Tris-HCl pH 7.5, 150 mM NaCl, 5 mM MgCl2; protein on the cell surface; protein details: EGFP fusion, full-length; label: Cy3.
The target in data set [6] is CD3 epsilon (primary human T cells) (Homo sapiens) (UniProt P07766). The data set is described as follows: flow cytometry. The following applies: 2'-F C and U; 500 nM aptamer on fresh human T cells, on ice; histogram shift; protein on the cell surface; label: Cy3. A general note: In flow cytometry, cells or beads pass a laser one at a time.

For some of these results: Results from cells or extracts need not show a direct contact. For some of these results: The exact form of at least one protein or probe is not confirmed.

As to “CUCAAUGGCGAAUGCCCGCCUAAUAGGGAGUUUUUUACAUUUUG / GGGAGGACGAUGCGGGCCUUCGUUUGUUUCGUCCACAGACGACUCGCCCGACAAAAUGUAAAAAACU [tP19-CCR5 bi-specific aptamer]”, in data set [1], the functional effect of the aptamer (% specific lysis) is 80. As for “GGAGACAAGAAUAAACGCUCAAAUAGAAGCAGCAUCUUCCAAAUCAGUUUGUGUGUCCUCUAUUCGACAGGAGGCUCACAACAGGC [C3e2]”, the selection result in data set [2] is reported as “selected”.

In the case of “GGGAGACAAGAAUAAACGCUCAAAGUUGCGGCCCAACCGUUUAAUUCAGAAUAGUGUGAUGCCUUCGACAGGAGGCUCACAACAGGC [P15]”, the binding result in data set [3] and in data set [4] was “binds” in each case. Turning to “GGGAGACAAGAAUAAACGCUCAAAUGCCUGUAGUUCGUAGCGAUUUAACUGCGUCAGUGAGGCUUCGACAGGAGGCUCACAACAGGC [C3e3]”, the selection result in data set [2] is “selected”. In addition, the binding result in data set [5] and in data set [6] was “binds” each time.
